Results published in PubChem BioAssay AID624291 (National Center for Advancing Translational Sciences (NCATS), 2012).
The whole screen tested about 350,000 compounds, of which about 220 (0.063%) were called active. Inconclusive means that the source gave no clear call. Such entries were picked first, then a sample of the others. Calls come from the whole dose curve; as a rule, active = well fitted activation curve with a large enough effect; inconclusive = small, poorly fitted or top-dose-only effect; inactive = no such curve, though single readings can be large or run the other way. Where the call is inconclusive, the potency comes from a doubtful curve fit.

Assay: qHTS for Activators of Integrin-Mediated Alleviation for Muscular Dystrophy; note: nearly all actives have a fitted effect of over 60% in size;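 for activation: 100% = response of the positive control SU9516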
Settings: alpha7betagal myoblasts, beta-gal FDG fluorescence, 48 h; activation: at 38.3 µM (top of the series)
Method in brief: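 Alpha7betagal+/- myoblasts (passage 13) were plated 16-24 hr, then exposed to compounds (1:260 dilution of DMSO stock) for 48 hours at 37C. After MPER lysis, β-galactosidase reporter activity was read as FDG fluorescence (ex 480/em 540) after 30 minutes.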
Potency is the fitted concentration of half-maximal effect.

| Compound | Potency | activation |
| --- | --- | --- |
| COc1ccccc1CNC(=O)C(C)c1ccc([N+](=O)[O-])cc1 (stereo not drawn) | inconclusive: 3.55 µM [activator, single point] | – |
| O=C(COC(=O)CCN1C(=O)c2cccc([N+](=O)[O-])c2C1=O)NC1CCS(=O)(=O)C1 (stereo not drawn) | – | inactive: 23.2% |
| CCNc1nc(Oc2c(Cl)cccc2Cl)cc(C(F)(F)F)n1 | – | inactive: -1.58% |
| CC1(C)CC(=O)C=C(Nc2cccc(C(F)(F)F)c2)C1 | inconclusive: 5.01 µM [activator, single point] | – |
| CCOC(=O)N1CCN(Cc2nc3cc(NC(=O)CC)ccc3n2C)CC1 | inconclusive: 5.01 µM [activator, single point] | – |
| Cc1cc(C(=O)N/N=C/c2cccnc2)c2ccccc2n1 | inconclusive: 22.4 µM [activator, single point] | – |
| COc1ccc(Br)cc1CN1CCCC(C(=O)N2CCCCC2)C1 (stereo not drawn) | – | inactive: -13.4% |
| COC(=O)N/N=C/c1cc(C)n(-c2cccc3ccccc23)c1C | inconclusive: 5.01 µM [activator, single point] | – |
| Cc1ccc(N(C(C)C(=O)N2CCOCC2)S(C)(=O)=O)cc1C (stereo not drawn) | inconclusive: 2.51 µM [activator, full curve, poor fit] | – |
| O=S(=O)(Nc1ccc(Br)cc1)c1cccc2cccnc12 | inconclusive: 5.01 µM [activator, single point] | – |
| Fc1ccc(N2CCN(c3cnc4ccccc4n3)CC2)cc1 | inconclusive: 20 µM [activator, single point] | – |
| Cc1ccc(NC(=O)CSc2nnc(C)c(=O)n2N)cc1Cl | inconclusive: 3.16 µM [activator, single point] | – |
| C=CCc1cc(Cl)ccc1OCCCNC(C)C | inconclusive: 12.6 µM [activator, partial curve, poor fit] | – |
| COC(=O)c1ccc(COC(=O)Cc2n[nH]c(=O)c3ccccc23)cc1 | – | inactive: -11.2% |
| CCOC(=O)c1cc(-c2cccnc2)nn1-c1ccccc1C | inconclusive: 3.55 µM [activator, single point] | – |
| CC(C)(C)c1[nH]nc2c1C(Cc1ccccc1)C(C#N)=C(N)O2 (stereo not drawn) | – | inactive: -27.2% |
| O=C(c1ccc2nccnc2c1)N1CCN(c2ccccc2)CC1 | inconclusive: 14.1 µM [activator, single point] | – |
| CC(=O)c1ccc(OCc2cc(C(=O)N(C)Cc3cc(C)no3)no2)cc1 | – | inactive: -28.4% |
| O=C(NCC1(c2ccccc2)CCCC1)c1ccco1 | inconclusive: 1.26 µM [activator, partial curve, poor fit] | – |
| CCc1cccc(NC(=O)C2CCCN2S(=O)(=O)c2cccc3cccnc23)c1 (stereo not drawn) | inconclusive: 0.891 µM [activator, full curve, poor fit] | – |
| O=C(CN(C(=O)c1csnn1)c1ccccc1)NCc1ccc2c(c1)OCO2 | inconclusive: 15.8 µM [activator, single point] | – |
| CC(=O)N(C)Cc1ccc(C(=O)CCl)cc1 | – | inactive: -62.9% |
| COc1ccc(/C(N)=N/OC(=O)CCC2CCCC2)cc1 | inconclusive: 1.78 µM [activator, single point] | – |

| Compound | Potency | activation |
| --- | --- | --- |
| Cc1cn2c(=O)c(C(=O)N3CCN(c4ccccc4)CC3)cnc2s1 | inconclusive: 10 µM [activator, single point] | – |
| O=C(CN1CCN(c2ccccn2)CC1)N1CC(O)CO1 (stereo not drawn) | – | inactive: 0.746% |
| CCCOc1ccc(C(CC(=O)O)NC(=O)c2ccc3c(c2)OCO3)cc1 (stereo not drawn) | inconclusive: 5.01 µM [activator, single point] | – |
| CCCN1Cc2cccc(C(=O)Nc3ccc(CN4CCCC4)cc3)c2C1=O | – | inactive: -33.8% |
| CC1CCN(C(=O)c2cc3c(ccc4ccccc43)o2)CC1 | inconclusive: 3.16 µM [activator, single point] | – |
| O=C(COC(=O)c1ccc2c(c1)OCO2)Nc1ccccc1Cl | inconclusive: 5.01 µM [activator, single point] | – |
| O=C(CCN1C(=O)c2ccncc2C1=O)Nc1cc(F)ccc1F | inconclusive: 17.8 µM [activator, partial curve, poor fit] | – |
| CN(C)CCNc1nc(-c2ccccc2)nnc1C(F)(F)F | – | inactive: -18.9% |
| COC(=O)c1sc(-c2ccccc2)cc1NC(=O)c1ccc(OC)cc1 | inconclusive: 5.01 µM [activator, single point] | – |
| O=C(NCCCN1CCOCC1)c1c(F)cccc1F | – | inactive: 0.353% [at 7.66 µM] |
| COc1ccc(C(C(=O)OCCN(C)C)c2ccccc2)cc1 (stereo not drawn) | inconclusive: 2.24 µM [activator, partial curve, poor fit] | – |
| COc1ccc(OC)c(NC(=O)CN2CCC(C(=O)c3ccc(C)cc3)CC2)c1 | – | inactive: 3.18% [at 7.66 µM] |
| CCC(=O)Nc1ccc(Cl)c(NC(=S)NC(=O)c2cc3ccccc3o2)c1 | – | inactive: -9.26% |
| Cc1cc([N+](=O)[O-])nn1Cc1noc(C(=O)NCCCn2ccnc2)n1 | inconclusive: 28.2 µM [activator, single point] | – |
| O=[N+]([O-])c1cc(Cl)ccc1-c1nc(-c2ccncc2)no1 | – | inactive: -27.4% |
| CCn1c(SCC(=O)NC2CC2)nnc1-c1ccc(C)cc1 | inconclusive: 11.2 µM [activator, partial curve, poor fit] | – |
| COc1ccc(C#Cc2c(-c3ccsc3)oc3ccc(N4CCOCC4)cc23)cc1 | – | inactive: -15% |
| COc1cccc(-c2onc3ccc(C4(C)OCCO4)cc23)c1 | – | inactive: 17.2% |
| COc1ccccc1CNc1cc(C)ccn1 | active: 2.51 µM | – |
| COc1ccc(C)cc1NC(=O)CN(C)S(=O)(=O)c1ccc2c(c1)CCCN2C(C)=O | inconclusive: 5.01 µM [activator, single point] | – |
| CSc1ccccc1NC(=O)c1cc(-c2ccc3c(c2)OCO3)on1 | inconclusive: 2.82 µM [activator, partial curve, poor fit] | – |
| O=C(CN1CCN(c2ccc(O)cc2)CC1)Nc1ccccc1C(=O)NCCc1ccccc1 | – | inconclusive: -64.8% [activator] |
| CC(C)=CCC[C@](C)(O[C@@H]1O[C@H](CO[C@@H]2OC[C@@H](O)[C@H](O)[C@H]2O)[C@@H](O)[C@H](O)[C@H]1O)C1CC[C@]2(C)C1[C@H](O)CC1[C@@]3(C)CC[C@H](O[C@@H]4O[C@H](CO)[C@@H](O)[C@H](O)[C@H]4O)C(C)(C)C3CC[C@]12C (stereo partly drawn) | – | inactive: -14.6% |

| Compound | Potency | activation |
| --- | --- | --- |
| COc1ccc(-c2csc(NC(=O)c3cc(C)oc3C)n2)cc1OC | inconclusive: 5.01 µM [activator, single point] | – |
| Cc1ccnc(NC(=O)c2ccc3c(c2)NC(=O)C(C)S3)c1 (stereo not drawn) | inconclusive: 12.6 µM [activator, single point] | – |
| COc1cc(-c2nc(CN3CCCCC3CCNC(C)=O)c(C)o2)ccc1F (stereo not drawn) | inconclusive: 28.2 µM [activator, single point] | – |
| CN(C)C(CNC(=O)c1cc2ccccc2oc1=O)c1ccccc1 (stereo not drawn) | inconclusive: 10 µM [activator, single point] | – |
| COc1cc(CC(=O)OCC(=O)Nc2ccc3c(c2)OCO3)cc(OC)c1OC | inconclusive: 5.01 µM [activator, single point] | – |
| CCOP(=O)(OCC)C(NC(=O)Nc1ccc(Cl)cc1)C(=O)N(CC)CC (stereo not drawn) | inconclusive: 28.2 µM [activator, single point] | – |
| O=C(COc1ccc(-c2ccccc2)cc1)NNC(=O)Nc1ccccc1 | inconclusive: 28.2 µM [activator, single point] | – |
| CN1CCNC(=O)C1CC(=O)N1CC=C(c2ccc(F)cc2)CC1 (stereo not drawn) | inconclusive: 5.01 µM [activator, single point] | – |
| COc1ccc(NC(=O)CCCC(=O)OCC(=O)c2cccc(OC)c2)cc1 | inconclusive: 22.4 µM [activator, partial curve, poor fit] | – |
| COc1ccc(-c2nc(-n3c(C)c(C(C)=O)c(C(C)=O)c3C)sc2C)cc1 | inconclusive: 3.16 µM [activator, partial curve, poor fit] | – |
| O=C(NN=Cc1ccc(F)cc1)c1ccccc1NS(=O)(=O)c1cccs1 | – | inactive: -18.8% |
| COc1ccc(CCN(C)Cc2ccc(C(=O)Nc3ccccc3)cc2)cc1OC | inconclusive: 1 µM [activator, full curve, poor fit] | – |
| O=C(/C=C/c1ccccc1)NNC(=O)c1ccco1 | inconclusive: 11.2 µM [activator, single point] | – |
| Cc1ccc2occ(/C=N/NC(=O)c3ccccc3Br)c(=O)c2c1 | inconclusive: 15.8 µM [activator, single point] | – |
| Cc1cc([N+](=O)[O-])ccc1NC(=O)C(C)N1CCN(c2ccccn2)CC1 (stereo not drawn) | inconclusive: 2 µM [activator, full curve, poor fit] | – |
| CCOC(=O)c1cc(-c2ccccc2)sc1NC(=O)C(C)OC(=O)c1cccnc1OCC (stereo not drawn) | inconclusive: 14.1 µM [activator, partial curve, poor fit] | – |
| O=C(c1ccco1)N1CCN(C(=O)c2cc(-c3ccccc3)nc3ccccc23)CC1 | – | inactive: 6.65% |
| COc1cccc(C2C(C(=O)c3ccco3)=C(O)C(=O)N2CCCN2CCOCC2)c1OC (stereo not drawn) | inconclusive: 28.2 µM [activator, single point] | – |
| CC(C)c1nnc(NC(=O)CCC(=O)N2CCN(c3ccc(Cl)cc3)CC2)s1 | inconclusive: 2.82 µM [activator, single point] | – |
| O=C(NCc1ccc(Cl)cc1)C1CCN(S(=O)(=O)c2ccc(N3CCCC3=O)cc2)CC1 | inconclusive: 3.16 µM [activator, single point] | – |
| Cc1nc2cc(-c3cccs3)[nH]n2c(=O)c1C | – | inactive: -3.66% |
| CC1=C/C(=N\NC(=S)Nc2cccnc2)CC(C)(C)C1 | – | inactive: -73.2% |

Reprinted at random: 2 records from the list.

| Compound | Potency | activation |
| --- | --- | --- |
| Cc1ccc2occ(/C=N/NC(=O)c3ccccc3Br)c(=O)c2c1 | inconclusive: 15.8 µM [activator, single point] | – |
| CCOC(=O)c1cc(-c2ccccc2)sc1NC(=O)C(C)OC(=O)c1cccnc1OCC (stereo not drawn) | inconclusive: 14.1 µM [activator, partial curve, poor fit] | – |
